The other results are listed elsewhere or left out. Shown are side measurements of this screen, not its main read-out; they come without a call. The list favours compounds with an active or inconclusive main result. The note in brackets gives the kind of curve behind each potency; many fits are weak.
Experiment: qHTS Assay for Lipid Storage Modulators in Drosophila S3 Cells;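 for cell number change: cells counted by Cell Tracker Red CMTPX staining in the red channel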
Settings: BODIPY lipid droplet fluorescence, 18-24 h; for cell number change: measured here: cell count max response, cells fed with added oleic acid
Outline: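 Drosophila S3 cells got compounds at several concentrations plus oleic acid (400 uM solution). Laser-scanning cytometry with 488 nm excitation read lipid droplets at 500-530 nm and cells at 575-640 nm. Percent activity was relative to 20 uM Triacsin C.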

[1] = measured here: cell number channel AC50, cells fed with added oleic acid
[2] = measured here: lipid fluorescence (Fed channel) AC50, cells fed with added oleic acid

| SMILES | cell number change [%] | AC50 [1] | AC50 [2] |
| --- | --- | --- | --- |
| COc1ccccc1NC(=O)NCc1nc(-c2ccc(C(F)(F)F)cc2)no1 | 57.6 | 5.8 µM [rising, partial curve] |  |
| Cc1ccc(CNCc2ccc3c(c2)OCO3)cc1 | -1.06 |  | 29.1 µM [rising, single point] |
| Cc1cc(=O)oc(C)c1C(=O)Nc1ccc2nsnc2c1 | 23.5 |  | 18.4 µM [falling, partial curve] |
| Cc1cc(Br)ccc1OCCOCCN1CCCC1 | 7.94 |  |  |
| CCc1ccccc1NC(=O)CN(C)C(=O)c1cc(C2CC2)nn1-c1ccccc1 | -12 |  |  |
| CCCN(CCC)C(=O)CCSCCC(=O)N(CCC)CCC |  |  | 20.6 µM [falling, partial curve] |
| CCC/C(=N/NC(=O)c1ccc2c(c1)OCO2)c1cccs1 | -8.73 |  | 51.7 µM [rising, partial curve, poor fit] |
| C/C(N)=C(/C#N)C(=O)COC(=O)CC12CC3CC(CC(C3)C1)C2 | -5.01 |  | 0.0058 µM [falling, full curve, poor fit] |
| COc1ccc(C(=O)CSc2nnc(COc3ccc(C#N)cc3)n2-c2ccccc2)cc1 | 36.5 | 16.4 µM [rising, single point] |  |
| CCN(CC)c1nc(Oc2ccc(C(=O)OC)cc2)nc(N2CCOCC2)n1 | 13.2 | 6.51 µM [falling, single point] | 6.51 µM [falling, single point] |
| CC(=O)c1c(C)[nH]c(C(=O)OC2CCCCC2=O)c1C (stereo not given) |  |  | 5.17 µM [falling, single point] |
| O=C(CN1CCN(S(=O)(=O)c2ccc(F)cc2)CC1)NC1CCCC1 | 29.3 |  | 8.2 µM [rising, partial curve, poor fit] |
| CCN(CC)S(=O)(=O)c1ccc(C)c(NC(=O)COc2ccc(Br)cc2Cl)c1 | -35.2 | 2.91 µM [falling, full curve] | 2.91 µM [falling, full curve] |
| O=C(CSc1nnc2ccc(-c3ccccn3)nn12)NCC1CCCO1 (stereo not given) | -6.28 |  | 0.116 µM [falling, single point] |
| CC1=CCC[C@@H]2[C@@](C)(CC/C(C)=C/C(=O)O)[C@H](C)CC[C@@]12C | -39.5 | 29.1 µM [falling, single point] | 32.6 µM [falling, partial curve] |
| O=C(Nc1ccccc1O)c1ccc2c(c1)C(=O)N(N1C(=O)c3ccccc3C1=O)C2=O | -1.94 |  | 0.82 µM [falling, full curve, poor fit] |
| O=C(CN1CCN(S(=O)(=O)c2ccc3ccccc3c2)CC1)Nc1ccc2c(c1)CCC2 | 2.1 | 0.731 µM [falling, single point] |  |
| Cc1csc(SCC(=O)Nc2ccc3c(c2)OCCO3)n1 |  | 0.00461 µM [falling, full curve] | 0.00461 µM [falling, full curve, poor fit] |
| CC1=C(C(=O)Nc2ccccc2C)C(c2cccnc2)n2nc(CCCO)nc2N1 (stereo not given) | 5.69 |  | 0.0517 µM [falling, full curve, poor fit] |
| O=C(COC(=O)C1CC2C=CC1C2)NCc1ccc(F)cc1 (stereo not given) | 13.8 |  | 0.58 µM [falling, full curve, poor fit] |

| SMILES | cell number change [%] | AC50 [1] | AC50 [2] |
| --- | --- | --- | --- |
| CC(CN1CCCCC1)NC(=O)c1cc(-c2ccccn2)nc2ccc(Cl)cc12 (stereo not given) | 3.38 |  | 0.146 µM [falling, full curve, poor fit] |
| CCOC(=O)c1sc2nc(N3CCOCC3)c3c(c2c1N)CCCC3 | -16.1 |  |  |
| N#CCC(=O)N/N=C/c1cc([N+](=O)[O-])ccc1N1CCOCC1 | 45.8 |  |  |
| NNc1nc2c(Cl)ccc(Cl)c2s1 | -16.7 |  |  |
| Cc1ccc(N(CC(O)CN2CCCCC2)S(=O)(=O)c2ccc(C)cc2)cc1 (stereo not given) | 1.32 |  | 3.55 µM [rising, single point] |
| CC(C)CN1CCN=C1N(C)C | -6.89 |  | 29.1 µM [rising, single point] |
| Cc1cc(C(=O)NN)c2cc(Br)ccc2n1 |  | 0.731 µM [rising, partial curve] |  |
| Cc1c(NC(=O)CCCCCN2C(=O)c3ccccc3C2=O)c(=O)n(-c2ccccc2)n1C | -1.02 |  | 7.31 µM [rising, partial curve, poor fit] |
| Cc1nnc(NCCO)c2ccccc12 | 35 | 14.6 µM [rising, single point] | 20.6 µM [rising, partial curve] |
| O=C(COC(=O)/C=C/c1ccccc1Cl)NCCNC(=O)COC(=O)/C=C/c1ccccc1Cl | 115 | 16.4 µM [rising, single point] | 11.6 µM [falling, single point] |
| CC(=O)c1cccc(CN(C)CC2CCCN(CCc3ccccc3C)C2)c1 (stereo not given) | -3.8 |  | 3.66 µM [rising, single point] |
| Cc1ccc(S(=O)(=O)N2CCN(Cc3cc(=O)n4ccccc4n3)CC2)c(C)c1 | -17.7 |  | 0.116 µM [falling, full curve] |
| O=C(CSc1nnc(-c2ccccc2Br)o1)Nc1cccc2ccccc12 | 96 |  | 0.731 µM [rising, single point] |
| O=C(NCc1cccs1)C(=O)NCC1OCCCN1S(=O)(=O)c1cccs1 (stereo not given) | -17.4 |  |  |
| CCc1ccc(S(=O)(=O)ON2C(=O)c3ccccc3C2=O)cc1 | -22 |  | 0.794 µM [falling, single point] |
| Cc1cc([N+](=O)[O-])c2c(c1C)C1C=CCC1C(c1ccccn1)N2 (stereo not given) | -1.49 |  |  |
| O=c1[nH]cnc2c1ncn2Cc1ccc([N+](=O)[O-])cc1 | -49.9 | 18.4 µM [falling, partial curve] | 14.6 µM [falling, partial curve] |
| CSCCC(NC(=O)c1ccco1)C(=O)N1CC=C(c2ccccc2)CC1 (stereo not given) | 26.5 |  | 12.6 µM [rising, single point] |
| C=C(C)C(=O)Nc1ccc(OC(F)(F)C(F)F)c(NC(=O)C(=C)C)c1 | -50.7 | 20.6 µM [falling, partial curve, poor fit] | 23.1 µM [falling, single point] |

For reference, 2 of the compounds above.

| SMILES | cell number change [%] | AC50 [1] | AC50 [2] |
| --- | --- | --- | --- |
| CC(CN1CCCCC1)NC(=O)c1cc(-c2ccccn2)nc2ccc(Cl)cc12 (stereo not given) | 3.38 |  | 0.146 µM [falling, full curve, poor fit] |
| CCOC(=O)c1sc2nc(N3CCOCC3)c3c(c2c1N)CCCC3 | -16.1 |  |  |
